# Assay results

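Luminescence from an EWS-FLI1 target-promoter (NR0B1) reporter, set against a CMV-promoter reporter, two days after silencing single genes in TC32 Ewing sarcoma cells.
Each siRNA was applied at 20 nM.
A z-score of the log NR0B1-over-CMV signal, less the median of siRNAs with the same seed; more negative means a stronger specific loss of the NR0B1 reporter.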

This is part of the screen; most of the strongest results are not listed here.
Sequences are the guide (antisense) strand, without overhang.

| Sequence | target gene | seed-corrected z-score |
|---|---|---|
| `UCUAUACCAAAGGUAAAUG` | TBL1XR1 | 0.1165 |
| `UGAAGUCUAAAGUUUCACU` | KCNV1 | 0.04448 |
| `AGUGAUUUCAUUAUGUUGC` | MMP14 | 0.1611 |
| `UCUCGGAAAUCUUCUGCGC` | PROSER2 | 0.4038 |
| `UCCUGGUCGAUCAAUUGCC` | THSD4 | -1.522 |
| `UAAGCUUAUUUAGUAUGCC` | EIF4G2 | -0.22 |
| `UGACGUACUGGAUCUCGCG` | ATF5 | 0.001509 |
| `AAGUGUUCACUCUUAUUGC` | LINC01116 | 0.3125 |
| `AAACUUAUCAAGAUCCAGG` | FMNL3 | 0.2311 |
| `AACUUGUCAAAGGACGUGG` | PPP1R3C | -0.9469 |
| `UCUGUUUAAACCGCAUCUG` | TBC1D9B | 0.175 |
| `UUCACUAACAUUCAAAGGU` | BEX2 | 0.4396 |
| `UCUGUUCUCCUUCUUUCCC` | DDN | -0.5199 |
| `UGACGGAUUAGGGCAAACC` | TAF15 | -0.4416 |
| `UAUUGAUCCAGUACACGUU` | ICOSLG | -0.3042 |
| `ACGGUAUUAACUCCUGCUC` | RPL7AP66 | -1.651 |
| `UAACCGGAAUGCUUGAUUC` | HDHD2 | -0.1842 |
| `UUAGGAGUUACAGUUGGGU` | SPRNP1 | -1.005 |
| `UUGCUCAUGAGGUUAAGGG` | ZBTB39 | -0.2169 |
| `UGAUGAGAAAGAACGUGUC` | CLCA4 | 0.5642 |
| `UCACUUACAGGCUUAGCAG` | UBE2U | -0.9915 |
| `AAUACCACAAGAGAUGUUC` | SLC22A16 | 1.099 |
| `UUAAGGAUGAGUUAUCCAC` | ATP1A2 | -0.293 |
| `UAAGUAUUUUGCUGCGUUG` | KRT25 | -0.6158 |
| `UGUUCUGAAAGGUCGCUGC` | SALL1 | 0.7744 |
| `UCCUAAAUCAGACUUUCUC` | C9orf170 | -0.9341 |
| `UUGAGUGUGAAGGUUAUCG` | SLFN11 | 0.407 |
| `UUUUGAAGUAUCAUAUUCC` | MRPL19 | 0.2314 |
| `UUCACAAUUUUUACGUUGC` | ATP5E | 0.4028 |
| `UGUACUUCACCAUAGAUUC` | ATP8B4 | -0.4878 |
| `AUCUGUGAUUAGAUGAACU` | MAP1LC3B2 | -1.489 |
| `AAAGGUGUGAAUCGCAUUC` | CAT | -0.8445 |
| `UAUUUAUUGUGGAGGAACU` | HYPM | -1.079 |
| `UCUUGUAUCCUGACAAGUG` | TMEM199 | 0.2378 |
| `UGCUGUACCACCUCCUCGU` | SRRM3 | 0.8072 |
| `AUACAUUGUACCAUUGAUC` | DCUN1D5 | 0.3208 |
| `AAAGCAUGAGCAUCUUUUG` | MRPL39 | -0.3209 |
| `UAUGUAAACAGUUUGUAAC` | RCBTB1 | 0.09559 |
| `AUAGGUUCUUGGGAGUAUC` | UTP15 | 0.6922 |
| `UUCUGGAUUAAAUCGUACC` | TNRC6C | -0.2997 |
| `AUCGUCAUCUGGUUGAUCG` | APPL2 | -0.8749 |

Repeated from the top, 4 entries:

{"sequence": "UCUAUACCAAAGGUAAAUG", "target gene": "TBL1XR1", "seed-corrected z-score": "0.1165"}
{"sequence": "UGAAGUCUAAAGUUUCACU", "target gene": "KCNV1", "seed-corrected z-score": "0.04448"}
{"sequence": "AGUGAUUUCAUUAUGUUGC", "target gene": "MMP14", "seed-corrected z-score": "0.1611"}
{"sequence": "UCUCGGAAAUCUUCUGCGC", "target gene": "PROSER2", "seed-corrected z-score": "0.4038"}

The results are deposited in PubChem (AID1159506; NCATS, 2015).